# From PubChem BioAssay AID662 (National Center for Advancing Translational Sciences (NCATS), 2007)
# The other results are listed elsewhere or left out. Shown are side measurements of this screen, not its main read-out; they come without a call. The list favours compounds with an active or inconclusive main result. The note in brackets gives the kind of curve behind each potency; many fits are weak.
# Assay: Cell signaling CRE-BLA (Fsk stim)
# Details: CHO CRE-bla reporter (cAMP response element driving beta-lactamase), forskolin EC10, beta-lactamase ratio; measured here: 460 nm blue channel
# In short: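 Cells were plated overnight at 37 °C, exposed to compound titrations plus EC10 NKH 477 for 3 h, then given CCF4 dye for 2 h at room temperature. Blue/green (460/530 nm) ratio was converted to %Activity and AC50 values calculated.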
row,Structure (SMILES),AC50
1,Cc1ccc(S(=O)(=O)OC2CCN(C)CC2)cc1,"0.0631 µM [rising, full curve, poor fit]"
2,Cc1cc(C)n(-c2ccc(Cl)c(C(=O)OCC(=O)N3CCCCC3C)n2)n1 (centres undefined),"10 µM [rising, single point]"
3,Oc1ccc(Nc2nc(N3CCCC3)c3ccccc3n2)cc1,"10 µM [rising, partial curve]"
4,Cc1ccc(C2C(C(=O)c3cc4ccccc4o3)=C(O)C(=O)N2CCN2CCOCC2)o1 (centres undefined),"5.01 µM [falling, full curve]"
5,Cc1cc(-c2nnc3sc(C4CCCCC4)nn23)n[nH]1,"2.51 µM [rising, partial curve, poor fit]"
6,CC(=O)c1cc(-c2ccc(F)cc2)n(CCC(=O)Nc2cc(C)[nH]n2)c1C,"0.631 µM [falling, single point]"
7,CC(O)CNc1nc2ccccc2n1-c1ncnc2sc3c(c12)CCC3 (centres undefined),"2 µM [rising, full curve, poor fit]"
8,CCc1ccc(Nc2nc(N)nc(CSc3nnnn3-c3ccccc3)n2)cc1,"12.6 µM [rising, partial curve]"
9,CS(=O)(=O)N(CC(=O)N1CCCC1)c1cccc(Cl)c1,"0.631 µM [falling, full curve, poor fit]"
10,Cc1nc(N2CCN(Cc3ccc4c(c3)OCO4)CC2)c2oc3ccccc3c2n1,"2 µM [rising, full curve]"
11,OCc1ccccc1OCCOc1ccc(Cl)c2cccnc12,"10 µM [rising, single point]"
12,OC(CNCCc1ccc(Cl)cc1)COCc1ccco1 (centres undefined),"15.8 µM [falling, partial curve]"
13,N#Cc1cccc(-c2ccc3ncnc(NCc4cccnc4)c3c2)c1,"10 µM [rising, partial curve]"
14,Clc1ccc(Cn2ncc3c(N4CCOCC4)ncnc32)cc1,"10 µM [rising, single point]"
15,O=c1c2ccccc2nc2n1CC/C2=C/N1CCN(c2cccc(C(F)(F)F)c2)CC1,"5.01 µM [falling, partial curve]"
16,O=c1c2ccccc2nnn1CSc1nnc(-c2cccs2)n1Cc1ccccc1,"25.1 µM [rising, single point]"
17,C=CCOc1ccc2c(c1)c(S(=O)(=O)c1ccc(C)cc1)cn2COC,"10 µM [rising, single point]"
18,CCn1c(=O)c2cc(C(=O)N3CCN(C(=O)c4ccco4)CC3)sc2c2ccccc21,"3.16 µM [rising, full curve]"
19,Cc1nc(C)c(C(=O)NCc2ccc(Cl)cc2)o1,"0.316 µM [falling, partial curve]"

# Reformatted bar-delimited: part of the list above
row | Structure (SMILES) | AC50
10 | Cc1nc(N2CCN(Cc3ccc4c(c3)OCO4)CC2)c2oc3ccccc3c2n1 | 2 µM [rising, full curve]
11 | OCc1ccccc1OCCOc1ccc(Cl)c2cccnc12 | 10 µM [rising, single point]
